Data taken from patent publication US7612079B2, “2,6,9-substituted purine derivatives and their use in the treatment of proliferative disorders” (Cyclacel Limited, priority 2001, dated 2009).

Test system: representative panel of human transformed tumour cell lines
Test: Average anti-proliferative activity in a panel of tumour cell lines
Format: cell-based
Conditions: read-out: average anti-proliferative IC50

`CC[C@H](CO)Nc1nc(NCc2ccccc2)c2ncn(C(C)C)c2n1` [Roscovitine] was tested, and the IC50 was ~10 µM.
